Measured values published in patent US20260102527A1.
No constants are given. Whether binding was seen depends on the method and setting. Some results given as binding are weak or reduced against the parent protein; the word gives no strength. One block for each binder: values may come before it.

The chains behind the UniProt entries cited, without tags or fusion partners. Where a name states a change or a piece, a line headed by the entry shows the natural chain unless it says otherwise.
UniProt P01732: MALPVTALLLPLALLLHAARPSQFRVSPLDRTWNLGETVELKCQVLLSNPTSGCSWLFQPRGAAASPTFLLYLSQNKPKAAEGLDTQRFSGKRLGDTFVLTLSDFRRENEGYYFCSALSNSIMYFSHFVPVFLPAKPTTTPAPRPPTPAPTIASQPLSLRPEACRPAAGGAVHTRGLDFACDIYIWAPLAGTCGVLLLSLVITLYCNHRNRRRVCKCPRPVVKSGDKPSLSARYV

Columns and labels:
[1] = target: recombinant hCD8αβ protein (R&D systems) (human) (UniProt P01732); test: SPR
[2] = target: recombinant hCD8αβ protein (R&D systems) (human) (UniProt P01732); test: equilibrium binding ELISA

binding [1]: binds
binding [2]: binds
B1: anti-human CD8β single domain antibody 22772 (VHH, not shown: small tags and cut ends)
VHH: DVQLVESGGGLVQPGGSLRLSCRASGHTFSDLSVGWFRRAPGKAREFVATTAWNGSIRYAESVKGRFTISRDNAANMMYLQMNSLKPEDTAIYYCAAAVGISYDYWGQGTQVTVSS

binding [1]: binds
binding [2]: binds
B2: anti-human CD8β single domain antibody 22719 (VHH, not shown: small tags and cut ends)
VHH: DVQLVESGGGLVQAGGSLRLSCRASGHTFSDTAVGWFRRVPGKEREFVATIAGSGSIRYSESVKGRFTISGDNAKNMVYLQMNRLKPEDTGVYYCAAAVGISYDYWGQGTQVTVSS

binding [1]: binds
binding [2]: binds
B3: anti-human CD8β single domain antibody 22728 (VHH, not shown: small tags and cut ends)
VHH: DVQLVESGGGLVQAGDSLRLSCVASGRTVSGGVMGWFRQAPGKGREFVASIKWESGRTYYVDSLKDGFTISRDSPKNTVYLQMTNLKPEDTAVYYCAAGIRVWQLSTLESTYDDWGQGTQVTVSS
